Results published in article PMC7862700.
This is a selection; strong and weak results do not stand in their true shares. At the low end of the ranking the order means little.

Amino acid sequences for entries named in this document (tags omitted). A change or cut given only in a name is not applied to a line headed by its entry.
UniProt O43186: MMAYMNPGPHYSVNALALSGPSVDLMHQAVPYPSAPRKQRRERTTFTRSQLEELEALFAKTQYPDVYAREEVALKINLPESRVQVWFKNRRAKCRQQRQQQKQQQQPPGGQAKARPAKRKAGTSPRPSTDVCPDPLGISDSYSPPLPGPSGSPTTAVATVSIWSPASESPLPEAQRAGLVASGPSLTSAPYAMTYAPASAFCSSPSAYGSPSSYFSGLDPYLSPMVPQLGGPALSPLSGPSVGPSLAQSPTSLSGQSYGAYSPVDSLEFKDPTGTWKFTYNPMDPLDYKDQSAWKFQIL

Each sequence was assayed against CRX (UniProt O43186) (assay: DAPPL (digital affinity profiling via proximity ligation, sequencing)). Conditions: 10 mM Tris-HCl pH 7.5, 50 mM NaCl, 1 mM DTT, 4% glycerol, room temperature, 30 min; GST-TFs on glutathione beads, 16-mer random dsDNA library, 0.1% …; high values mean tight binding; double strand, one strand shown; scale: fold enrichment (6-mer frequency, TF over GST control).

Sequence | binding signal
AATTAT | 2.05
ACGACC | 0.86
GAAACC | 0.648
CTGCTT | 1.69
GTTATC | 1.24
CATGCA | 0.795
TGTTGT | 0.938
TTCCCG | 1.7
TACAAT | 1.44
ACCATC | 0.953
TCGTCC | 0.774
AGTGGT | 0.808
GTACAA | 0.847
AATGCG | 1.36
GTCCCG | 0.833
GGAAAA | 0.943
GTCCTT | 0.99
GTCCCA | 0.912
ATGATG | 1.21
TGGCCC | 0.85

Sequence | binding signal
GAAAAC | 0.811
AAACGA | 0.953
CGCACG | 0.764
TCACTG | 1.09
GTTCAC | 0.821
TTGGCA | 1.12
TAATCG | 2.89
ATAATG | 1.52
CCGAGC | 1.01
AATATG | 1.1
AATTCG | 1.57
GAACAA | 1.06
CATACC | 0.748
CCCAAC | 0.88
CCGGAC | 0.76
TTACGT | 1.74
TAATCC | 7.84
TATCCC | 2.22
AGCATC | 0.886

Part of the list above, tab-delimited:
Sequence	binding signal
TTCCCG	1.7
TACAAT	1.44
ACCATC	0.953
